# Screening data, single-dose tests

Protein sequences, listed by entry. Tags and fused reporters are not part of them. Residues count along the entry.
UniProt Q8IDJ8, 1-583: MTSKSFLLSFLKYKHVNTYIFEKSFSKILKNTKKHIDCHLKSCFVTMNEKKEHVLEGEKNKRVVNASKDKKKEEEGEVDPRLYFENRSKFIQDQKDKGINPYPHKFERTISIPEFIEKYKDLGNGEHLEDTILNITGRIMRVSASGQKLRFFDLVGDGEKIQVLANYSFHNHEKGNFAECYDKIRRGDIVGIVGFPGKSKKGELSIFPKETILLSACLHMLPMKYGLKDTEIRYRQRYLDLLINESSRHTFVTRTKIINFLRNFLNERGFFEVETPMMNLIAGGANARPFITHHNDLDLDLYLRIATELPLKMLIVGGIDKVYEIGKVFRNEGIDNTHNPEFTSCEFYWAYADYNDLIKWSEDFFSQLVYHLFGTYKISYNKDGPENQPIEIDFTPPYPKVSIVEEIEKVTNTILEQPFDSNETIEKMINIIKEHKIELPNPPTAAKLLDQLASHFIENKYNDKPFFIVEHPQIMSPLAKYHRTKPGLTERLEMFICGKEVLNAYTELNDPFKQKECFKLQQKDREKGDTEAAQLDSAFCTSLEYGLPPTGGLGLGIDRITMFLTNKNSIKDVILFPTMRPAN
UniProt P9WFT3, whole entry: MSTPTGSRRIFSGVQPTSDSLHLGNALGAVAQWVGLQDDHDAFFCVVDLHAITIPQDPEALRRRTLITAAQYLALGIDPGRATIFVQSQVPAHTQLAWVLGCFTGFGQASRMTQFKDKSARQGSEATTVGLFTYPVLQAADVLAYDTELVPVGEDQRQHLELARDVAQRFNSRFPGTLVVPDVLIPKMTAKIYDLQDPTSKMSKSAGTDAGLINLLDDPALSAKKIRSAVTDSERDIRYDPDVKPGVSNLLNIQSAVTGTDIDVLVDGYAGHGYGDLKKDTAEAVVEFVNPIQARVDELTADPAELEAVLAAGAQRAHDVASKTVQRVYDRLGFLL

PfKRS1: 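Enzyme assay of the cytosolic lysyl-tRNA synthetase in 384-well plates, read by luminescence. Target: Lysine-tRNA ligase, Plasmodium falciparum 3D7 (UniProt Q8IDJ8). Compounds at 30 µM. Direction is inferred from only a few compounds that gave an IC50; most scored high, so higher reads as stronger inhibition. Of about 69,000 compounds tested this way, about 49 (0.071%) reached 50% or more in at least one test.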
MtTrpRS: 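Tryptophan-tRNA ligase, Mycobacterium tuberculosis (UniProt P9WFT3). Enzyme assay of tryptophanyl-tRNA synthetase; the read-out is not stated. Compounds at 10 µM. Direction is not recorded; retested compounds ran higher, which suggests that high means inhibition. Of about 65,000 compounds tested this way, about 64 (0.098%) reached 50% or more in at least one test.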

Results are given as percent effect. How 0% and 100% were set is not recorded. Most values in the screen are low, and negative values occur. This is an unselected part of the compounds tested.

* c1ccc(Cc2nc(CNC3CCC4(CCNCC4)CC3)no2)cc1 | PfKRS1: 2.313%; MtTrpRS: 2.056%
* O=C(c1ccco1)N1CCN2C[C@H](OCc3cccnc3)C[C@H]2C1 | PfKRS1: 5.352%; MtTrpRS: 0.7819%
* Cc1cccc2cc(CO)c(N3Cc4cnc(C(C)(C)C)nc4C3)nc12 | PfKRS1: -5.39%; MtTrpRS: 15.25%
* Cc1c[nH]c(C(=O)N2C[C@H]3CC[C@@H]2CN(Cc2cscn2)C3)n1 | PfKRS1: 1.799%; MtTrpRS: 1.978%
* CC(C(=O)NCCN1CCN(C)CC1)n1cncn1 (stereo not shown) | PfKRS1: -0.4366%; MtTrpRS: -2.887%
* O=C(c1cccc2cccnc12)N1CCCC(n2ccnc2)C1 (stereo not shown) | PfKRS1: -1.067%; MtTrpRS: -5.304%
* O=C(CN1CCCc2cc(F)cc(F)c21)Nc1ccc(Br)cn1 | PfKRS1: 0.6585%; MtTrpRS: 0%
* O=S(=O)(c1c(F)cccc1F)N1CCC(Cn2cccn2)CC1 | PfKRS1: 4.191%; MtTrpRS: -3.602%
* CC1(C)CN(CC(=O)NCc2ccccc2F)C[C@]1(C)O | PfKRS1: 0.41%; MtTrpRS: -3.765%
* CN1CCN(C2CCN(C(C(N)=O)c3ccccc3)CC2)C1=O (stereo not shown) | PfKRS1: 6.562%; MtTrpRS: -1.324%
* O=C(CS(=O)(=O)C1CCCC1)NC1CCc2nccn2C1 (stereo not shown) | PfKRS1: 2.859%; MtTrpRS: -0.6517%
* COc1cc(NC(=O)c2nc3ccccc3n(C)c2=O)cc(OC)c1 | PfKRS1: 0.4303%; MtTrpRS: -2.788%
* Cc1nnsc1CN1C[C@H]2CC[C@@H]1CN(Cc1ccccn1)C2 | PfKRS1: 2.138%; MtTrpRS: 2.854%
* CN(Cc1csc(-c2cccs2)n1)C(=O)CCn1ccc(=O)[nH]c1=O | PfKRS1: -0.8819%; MtTrpRS: -5.181%
* O=C(c1ccccn1)N1CC[C@@H](N2CCOCC2)[C@@H]1Cc1ccccc1 | PfKRS1: 3.254%; MtTrpRS: -0.6975%
* CC(=O)N1CCCC1C(=O)NCCOc1cccc(F)c1 (stereo not shown) | PfKRS1: 4.149%; MtTrpRS: 9.282%
* CCSc1ccc(NC(=O)NC(C)c2c(C)noc2C)cn1 (stereo not shown) | PfKRS1: 0.1808%; MtTrpRS: -2.786%
* CC(=O)N1CCOC(c2cncc(CCC(=O)N(C)C)n2)C1 (stereo not shown) | PfKRS1: 0.741%; MtTrpRS: -2.242%
* CS(=O)(=O)NC1CCCN(C(=O)NCc2ccoc2)C1 (stereo not shown) | PfKRS1: -0.7451%; MtTrpRS: 1.379%
* Cc1nc(C(C)(C)NC(=O)Nc2ccccc2)no1 | PfKRS1: -1.889%; MtTrpRS: -2.067%
* COc1ccc(NC(=O)CCC2CCCN(S(=O)(=O)C3CC3)C2)c(C)c1 (stereo not shown) | PfKRS1: 9.214%; MtTrpRS: -4.499%
* Cc1cccc2c1nc1n2[C@@H](CNC(=O)c2cnccn2)COC1 | PfKRS1: -3.405%; MtTrpRS: 6.753%
* Cn1cc(CN2CCc3ncnc(N4CCCC4)c3CC2)cn1 | PfKRS1: -1.536%; MtTrpRS: -4.44%
* O=C(c1cc(F)ccc1O)N1CCN(C2CCSC2)CC1 (stereo not shown) | PfKRS1: 3.937%; MtTrpRS: 4.958%
* CN1CCOC(C(=O)Nc2nc(-c3ccc(Cl)cc3)n[nH]2)C1 (stereo not shown) | PfKRS1: 4.073%; MtTrpRS: 2.285%
* COc1ccc(-c2noc(CN3CCc4cncnc4C3)n2)cc1 | PfKRS1: 4.16%; MtTrpRS: 3.931%
* CCOc1ncnc2c1CCN(Cc1cccs1)CC2 | PfKRS1: 2.494%; MtTrpRS: -7.714%
* COc1cc2c(c(OC)c1OC)CCN(CCn1cncn1)CC2 | PfKRS1: 2.01%; MtTrpRS: -0.1468%
* Cc1ccc(C(=O)N2C[C@H](OCc3cccnc3)[C@H]3COC[C@H]32)cn1 | PfKRS1: 1.459%; MtTrpRS: -4.991%
* CCc1cccc2cc(CNCCOC)c(=O)[nH]c12 | PfKRS1: -0.1993%; MtTrpRS: 7.292%
* Cc1ccccc1CN(C)Cc1nc2c(cnn2C)c(=O)[nH]1 | PfKRS1: 2.016%; MtTrpRS: -1.559%
* COC(=O)NCC1CCC2(CCNCC2)O1 (stereo not shown) | PfKRS1: 3.419%; MtTrpRS: 1.536%
* COc1cccc(CNCc2ccc(F)c(Cl)c2)c1O | PfKRS1: -2.737%; MtTrpRS: 0.5663%
* Cn1ncc2c1CCCN(C(=O)C1CC1)C2 | PfKRS1: -2.106%; MtTrpRS: -1.52%
* Cc1ccc(CN2CC[C@@H]3OCCN(S(C)(=O)=O)[C@H]3CC2)s1 | PfKRS1: 3.897%
* CC(=O)c1ccc(-n2c(C)cn(CCC#N)c2=O)cc1 | PfKRS1: 4.781%; MtTrpRS: -3.613%
* Cc1cc(C(=O)N(C)CCCn2cccn2)nc(N)n1 | PfKRS1: 3.998%; MtTrpRS: 5.727%
* COc1ccccc1-c1cc(NC(=O)CC2CCS(=O)(=O)C2)[nH]n1 (stereo not shown) | PfKRS1: 4.4%; MtTrpRS: 0.3636%
* CCOC[C@H]1CC[C@H]2[C@H](CCN2S(=O)(=O)Cc2ccccc2)O1 | PfKRS1: 2.099%; MtTrpRS: -3.246%
* CC(=O)N1CC(=O)N(c2cnn(C)c2)CC12CCN(CC1CC1)C2 (stereo not shown) | PfKRS1: 6.105%; MtTrpRS: 10.88%
* CCN1CCNC(=O)C12CCN(C(=O)Cc1ccsc1)CC2 | PfKRS1: 5.941%
* Cc1cnn(CCCN2C(=O)CCc3ccccc32)c1 | PfKRS1: 17.88%; MtTrpRS: 1.709%
* COc1ccnc(N2CCCN(c3nc(C4CC4)ns3)CC2)n1 | PfKRS1: -2.395%; MtTrpRS: -1.72%
* Cc1cccc(C(=O)NCC2CCS(=O)(=O)C2)n1 (stereo not shown) | PfKRS1: 4.071%; MtTrpRS: -4.758%

The first 2 entries again:

Compound	PfKRS1	MtTrpRS
c1ccc(Cc2nc(CNC3CCC4(CCNCC4)CC3)no2)cc1	2.313	2.056
O=C(c1ccco1)N1CCN2C[C@H](OCc3cccnc3)C[C@H]2C1	5.352	0.7819

From ChEMBL document CHEMBL3988442, “University of Dundee, Small-Polar-MMV Screening Library” (2021).